# Assay results reported in publication PMC8653610.
# Amino acid sequences for entries named in this document (tags omitted). A change or cut given only in a name is not applied to a line headed by its entry.
# UniProt P67809: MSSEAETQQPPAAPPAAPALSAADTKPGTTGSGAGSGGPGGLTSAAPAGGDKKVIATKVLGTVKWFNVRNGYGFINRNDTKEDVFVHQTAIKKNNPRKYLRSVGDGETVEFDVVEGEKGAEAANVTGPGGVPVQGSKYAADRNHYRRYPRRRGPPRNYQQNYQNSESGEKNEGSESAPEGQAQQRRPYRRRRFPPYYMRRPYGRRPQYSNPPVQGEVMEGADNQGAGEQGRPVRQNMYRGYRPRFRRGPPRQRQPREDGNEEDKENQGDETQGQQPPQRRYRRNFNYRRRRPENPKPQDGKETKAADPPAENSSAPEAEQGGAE
# UniProt Q09472: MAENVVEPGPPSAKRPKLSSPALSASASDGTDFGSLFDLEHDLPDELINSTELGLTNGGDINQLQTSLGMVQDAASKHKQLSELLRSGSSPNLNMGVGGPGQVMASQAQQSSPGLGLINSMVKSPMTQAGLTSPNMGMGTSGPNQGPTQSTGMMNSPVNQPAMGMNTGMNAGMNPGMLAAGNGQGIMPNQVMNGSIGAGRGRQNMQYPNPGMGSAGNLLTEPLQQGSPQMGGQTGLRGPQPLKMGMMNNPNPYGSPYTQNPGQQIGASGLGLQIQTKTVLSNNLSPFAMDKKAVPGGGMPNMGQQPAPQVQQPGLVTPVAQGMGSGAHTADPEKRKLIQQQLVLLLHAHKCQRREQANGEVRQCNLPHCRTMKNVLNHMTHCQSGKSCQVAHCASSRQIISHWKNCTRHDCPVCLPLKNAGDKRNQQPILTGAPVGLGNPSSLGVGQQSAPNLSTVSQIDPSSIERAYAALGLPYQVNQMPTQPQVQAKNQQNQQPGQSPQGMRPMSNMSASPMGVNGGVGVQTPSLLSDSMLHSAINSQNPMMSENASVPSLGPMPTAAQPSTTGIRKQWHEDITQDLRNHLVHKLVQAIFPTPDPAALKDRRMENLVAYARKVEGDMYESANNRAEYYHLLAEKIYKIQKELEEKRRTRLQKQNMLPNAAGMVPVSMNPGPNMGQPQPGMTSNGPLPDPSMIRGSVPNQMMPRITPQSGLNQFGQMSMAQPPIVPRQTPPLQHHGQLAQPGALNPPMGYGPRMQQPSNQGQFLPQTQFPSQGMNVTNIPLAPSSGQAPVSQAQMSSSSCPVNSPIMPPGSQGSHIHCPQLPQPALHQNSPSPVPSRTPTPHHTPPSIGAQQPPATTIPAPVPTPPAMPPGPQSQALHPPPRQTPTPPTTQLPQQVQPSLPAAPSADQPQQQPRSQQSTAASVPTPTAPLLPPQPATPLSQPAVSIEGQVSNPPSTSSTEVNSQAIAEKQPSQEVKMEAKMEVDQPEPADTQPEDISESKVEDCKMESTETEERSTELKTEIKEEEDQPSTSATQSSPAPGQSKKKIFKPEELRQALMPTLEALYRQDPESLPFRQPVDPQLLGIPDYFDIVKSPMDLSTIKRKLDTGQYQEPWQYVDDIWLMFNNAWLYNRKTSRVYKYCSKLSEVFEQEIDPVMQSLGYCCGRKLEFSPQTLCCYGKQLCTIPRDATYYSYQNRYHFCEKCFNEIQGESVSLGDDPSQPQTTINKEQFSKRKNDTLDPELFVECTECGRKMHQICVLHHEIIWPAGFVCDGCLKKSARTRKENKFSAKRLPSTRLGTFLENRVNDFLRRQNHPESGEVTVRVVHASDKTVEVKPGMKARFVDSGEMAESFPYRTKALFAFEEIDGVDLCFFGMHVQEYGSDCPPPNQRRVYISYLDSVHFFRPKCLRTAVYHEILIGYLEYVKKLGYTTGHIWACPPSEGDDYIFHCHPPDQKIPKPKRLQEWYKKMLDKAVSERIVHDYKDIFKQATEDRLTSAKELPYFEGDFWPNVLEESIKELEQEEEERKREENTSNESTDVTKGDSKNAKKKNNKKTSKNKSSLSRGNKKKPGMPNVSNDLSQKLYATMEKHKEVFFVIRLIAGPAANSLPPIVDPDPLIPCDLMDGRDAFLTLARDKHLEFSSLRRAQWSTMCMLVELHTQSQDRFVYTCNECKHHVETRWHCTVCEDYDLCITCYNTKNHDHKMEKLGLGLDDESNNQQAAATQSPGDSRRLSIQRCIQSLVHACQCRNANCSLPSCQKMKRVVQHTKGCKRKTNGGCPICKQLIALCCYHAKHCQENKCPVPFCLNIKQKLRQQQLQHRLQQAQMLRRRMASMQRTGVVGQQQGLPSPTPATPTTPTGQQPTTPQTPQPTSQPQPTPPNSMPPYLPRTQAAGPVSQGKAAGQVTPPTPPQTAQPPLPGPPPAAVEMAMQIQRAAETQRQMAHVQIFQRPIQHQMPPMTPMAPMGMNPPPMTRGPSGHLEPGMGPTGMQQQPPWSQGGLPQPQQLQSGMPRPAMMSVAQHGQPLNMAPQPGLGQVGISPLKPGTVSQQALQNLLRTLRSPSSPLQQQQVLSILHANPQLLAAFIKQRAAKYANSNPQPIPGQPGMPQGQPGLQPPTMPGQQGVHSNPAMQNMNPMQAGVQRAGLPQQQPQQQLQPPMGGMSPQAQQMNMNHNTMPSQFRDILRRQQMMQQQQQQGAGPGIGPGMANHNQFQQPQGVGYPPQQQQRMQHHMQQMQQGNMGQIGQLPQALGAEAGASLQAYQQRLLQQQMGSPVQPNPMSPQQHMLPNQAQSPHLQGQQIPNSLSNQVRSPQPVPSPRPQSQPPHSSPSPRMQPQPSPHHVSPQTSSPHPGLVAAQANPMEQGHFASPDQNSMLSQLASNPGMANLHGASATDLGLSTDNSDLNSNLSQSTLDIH
# Results are given in words; binding and its absence hold for the method and conditions named. Binding seen in cells or lysates may run through a third protein. Some binding calls cover weakened binding; strength is not graded here.
# Target: Y-box binding protein-1 (YB-1) (human (endogenous in BeWo)) (UniProt P67809)
# Assay: co-IP; in the nucleus of BeWo cells, control and caffeine-treated groups; protein incubated with 1 ug p-JNK or YB-1 antibody overnight, protein A/G agarose beads 4 h, western blotting
substance,measurement,value
E1A binding protein P300 (P300) (from UniProt Q09472 1-2414) (enzyme),binding,binds
